Measured values published in PMC5216926.
These are yes or no findings as the source states them, for the method shown. In cells and extracts the contact can be indirect. Some results given as binding are weak or reduced against the parent protein; the word gives no strength.

The chains behind the UniProt entries cited, without tags or fusion partners.
UniProt Q01860: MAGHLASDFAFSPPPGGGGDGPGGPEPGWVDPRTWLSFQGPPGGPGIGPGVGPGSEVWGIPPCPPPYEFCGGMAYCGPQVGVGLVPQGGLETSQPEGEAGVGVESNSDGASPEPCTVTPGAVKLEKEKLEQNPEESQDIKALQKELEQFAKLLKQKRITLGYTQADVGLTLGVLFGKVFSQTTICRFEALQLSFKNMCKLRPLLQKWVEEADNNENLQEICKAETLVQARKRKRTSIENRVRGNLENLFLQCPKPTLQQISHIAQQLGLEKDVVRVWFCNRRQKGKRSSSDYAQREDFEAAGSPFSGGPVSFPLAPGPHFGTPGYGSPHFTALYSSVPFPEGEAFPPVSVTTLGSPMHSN
UniProt Q9H6I2: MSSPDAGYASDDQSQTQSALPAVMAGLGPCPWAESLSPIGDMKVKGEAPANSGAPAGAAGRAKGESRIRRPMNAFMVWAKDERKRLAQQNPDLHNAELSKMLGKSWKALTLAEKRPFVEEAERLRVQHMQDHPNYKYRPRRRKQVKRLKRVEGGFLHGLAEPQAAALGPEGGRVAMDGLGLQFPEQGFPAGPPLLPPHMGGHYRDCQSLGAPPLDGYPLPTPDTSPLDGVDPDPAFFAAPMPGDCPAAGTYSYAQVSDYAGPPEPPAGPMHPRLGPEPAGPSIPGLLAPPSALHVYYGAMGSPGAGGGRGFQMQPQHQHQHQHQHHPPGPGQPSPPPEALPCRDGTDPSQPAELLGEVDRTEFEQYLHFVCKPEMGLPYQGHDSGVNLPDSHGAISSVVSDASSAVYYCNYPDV

Molecular target: OCT3/4 (human (endogenous in TCam-2)) (UniProt Q01860)
Assay: co-IP; endogenous proteins in TCam-2 lysate; Dynabeads Protein G (1.5 mg) with 10 ug IP-antibody; 200 ug total protein lysate; immunoprecipitation at RT for 2 h; western blotting

SOX17 (from UniProt Q9H6I2 1-414) was tested, and the binding was “binds”.
